Source: article PMC8490708

T1: CBX4-BirA* (human) (UniProt O00257)
T1 sequence: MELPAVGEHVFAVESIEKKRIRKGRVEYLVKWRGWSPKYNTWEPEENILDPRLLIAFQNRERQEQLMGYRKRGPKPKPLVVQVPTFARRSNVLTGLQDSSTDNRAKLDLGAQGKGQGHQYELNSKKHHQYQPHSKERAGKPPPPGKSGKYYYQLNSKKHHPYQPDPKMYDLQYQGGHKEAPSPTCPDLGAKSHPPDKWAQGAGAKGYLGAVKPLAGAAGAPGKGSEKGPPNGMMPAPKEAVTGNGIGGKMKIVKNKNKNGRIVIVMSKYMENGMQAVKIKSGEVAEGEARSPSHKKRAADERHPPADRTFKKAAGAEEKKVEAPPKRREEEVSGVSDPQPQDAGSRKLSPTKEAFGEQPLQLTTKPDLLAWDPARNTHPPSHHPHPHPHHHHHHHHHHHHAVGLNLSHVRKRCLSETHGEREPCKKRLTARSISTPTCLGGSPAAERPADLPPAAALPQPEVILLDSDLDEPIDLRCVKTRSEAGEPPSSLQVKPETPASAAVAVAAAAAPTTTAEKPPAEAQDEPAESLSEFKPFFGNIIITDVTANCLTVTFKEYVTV

T2: DmPc-BirA* (Drosophila melanogaster) (UniProt P26017)
T2 sequence: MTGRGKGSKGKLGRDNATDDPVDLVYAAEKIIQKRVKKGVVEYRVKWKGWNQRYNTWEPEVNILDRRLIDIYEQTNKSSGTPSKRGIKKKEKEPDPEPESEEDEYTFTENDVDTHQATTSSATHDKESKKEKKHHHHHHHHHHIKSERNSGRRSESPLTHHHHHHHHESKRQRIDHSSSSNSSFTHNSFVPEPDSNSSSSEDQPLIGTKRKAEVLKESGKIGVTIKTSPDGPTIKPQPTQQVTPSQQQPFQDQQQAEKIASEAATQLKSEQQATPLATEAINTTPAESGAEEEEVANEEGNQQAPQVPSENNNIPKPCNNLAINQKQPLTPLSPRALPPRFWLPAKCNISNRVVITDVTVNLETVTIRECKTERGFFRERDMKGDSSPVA


Legend:
CBX4-BirA* (human) = target: T1, CBX4-BirA* (human); assay: proximity labelling; BioID: BirA* fusion co-transfected with HA-tagged SALL1 in HEK 293FT cells, biotin added; lysis in 8 M urea, 1% SDS; NeutrAvidin-agarose pulldown of biotinylated material, stringent washes, Western blot with anti-HA
[1] = target: T2, DmPc-BirA* (Drosophila melanogaster); assay: as above

Molecule	binding (CBX4-BirA* (human))	binding [1]
SALL1^826-2xHA (human) (domain or fragment)	binds	–
SALL1-2xHA (protein, UniProt Q9NSC2 1-1324) MSRRKQAKPQHFQSDPEVASLPRRDGDTEKGQPSRPTKSKDAHVCGRCCAEFFELSDLLLHKKNCTKNQLVLIVNENPASPPETFSPSPPPDNPDEQMNDTVNKTDQVDCSDLSEHNGLDREESMEVEAPVANKSGSGTSSGSHSSTAPSSSSSSSSSSGGGGSSSTGTSAITTSLPQLGDLTTLGNFSVINSNVIIENLQSTKVAVAQFSQEARCGGASGGKLAVPALMEQLLALQQQQIHQLQLIEQIRHQILLLASQNADLPTSSSPSQGTLRTSANPLSTLSSHLSQQLAAAAGLAQSLASQSASISGVKQLPPIQLPQSSSGNTIIPSNSGSSPNMNILAAAVTTPSSEKVASSAGASHVSNPAVSSSSSPAFAISSLLSPASNPLLPQQASANSVFPSPLPNIGTTAEDLNSLSALAQQRKSKPPNVTAFEAKSTSDEAFFKHKCRFCAKVFGSDSALQIHLRSHTGERPFKCNICGNRFSTKGNLKVHFQRHKEKYPHIQMNPYPVPEHLDNIPTSTGIPYGMSIPPEKPVTSWLDTKPVLPTLTTSVGLPLPPTLPSLIPFIKTEEPAPIPISHSATSPPGSVKSDSGGPESATRNLGGLPEEAEGSTLPPSGGKSEESGMVTNSVPTASSSVLSSPAADCGPAGSATTFTNPLLPLMSEQFKAKFPFGGLLDSAQASETSKLQQLVENIDKKATDPNECIICHRVLSCQSALKMHYRTHTGERPFKCKICGRAFTTKGNLKTHYSVHRAMPPLRVQHSCPICQKKFTNAVVLQQHIRMHMGGQIPNTPVPDSYSESMESDTGSFDEKNFDDLDNFSDENMEDCPEGSIPDTPKSADASQDSLSSSPLPLEMSSIAALENQMKMINAGLAEQLQASLKSVENGSIEGDVLTNDSSSVGGDMESQSAGSPAISESTSSMQALSPSNSTQEFHKSPSIEEKPQRAVPSEFANGLSPTPVNGGALDLTSSHAEKIIKEDSLGILFPFRDRGKFKNTACDICGKTFACQSALDIHYRSHTKERPFICTVCNRGFSTKGNLKQHMLTHQMRDLPSQLFEPSSNLGPNQNSAVIPANSLSSLIKTEVNGFVHVSPQDSKDTPTSHVPSGPLSSSATSPVLLPALPRRTPKQHYCNTCGKTFSSSSALQIHERTHTGEKPFACTICGRAFTTKGNLKVHMGTHMWNSTPARRGRRLSVDGPMTFLGGNPVKFPEMFQKDLAARSGSGDPSSFWNQYAAALSNGLAMKANEISVIQNGGIPPIPGSLGSGNSSPVSGLTGNLERLQNSEPNAPLAGLEKMASSENGTNFRFTRFVEDSKEIVTS	binds	binds

Results are given in words; binding and its absence hold for the method and conditions named. Binding seen in cells or lysates may run through a third protein. Here binding means that the protein was enriched with, or labelled near, the bait; the list need not be complete.
